Experimental data as given in the supplement of paper PMC10626197.
Some well-known active drugs show little effect in this data set, so a weak value is uncertain.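 MCF7, a breast cancer cell line, was exposed to pairs of drugs across a grid of doses. Every plate had solvent-only (DMSO) wells as the untreated reference and a doxorubicin series as the total-kill control. No hit threshold is applied to these viability readings.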

System: MCF7
Experiment: cell viability relative to DMSO control (raw); higher = more viable cells
Conditions: exposure time 72 h
Experimental: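 MCF7 cells, 1000 cells/well in 384-well plates, treated with 6x6 dose matrices of drug pairs (1:3 serial dilutions, DMSO as lowest dose) for 72 h at 37 °C. Viability read by CellTiter-Glo luminescence, 3 biological replicates. Normalised viability sets 0% at the highest doxorubicin dose and 100% at the 0,0 µM control per combination.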

CCCS(=O)(=O)Nc1ccc(F)c(C(=O)c2c[nH]c3ncc(-c4ccc(Cl)cc4)cc23)c1F [Vemurafenib] + C=C1/C(=C\C=C2/CCC[C@]3(C)[C@@H]([C@H](C)CCCC(C)C)CC[C@@H]23)C[C@@H](O)C[C@@H]1O [Alfacalcidol]
cell viability [%]
Conditions | drug 2 concentration 0 µM | drug 2 concentration 0.617284 µM | drug 2 concentration 1.85185 µM | drug 2 concentration 5.55556 µM | drug 2 concentration 16.6667 µM | drug 2 concentration 50 µM
drug 1 concentration 0.154321 µM | 97.4 | 97.3 | 95 | 97.8 | 80.6 | 1.11
drug 1 concentration 0.462963 µM | 102 | 98.1 | 103 | 94.1 | 89.2 | 0.595
drug 1 concentration 1.38889 µM | 103 | 99.4 | 106 | 94.8 | 83 | 2.44
drug 1 concentration 4.16667 µM | 105 | 114 | 103 | 93.7 | 76.7 | 0.507
drug 1 concentration 12.5 µM | 114 | 93.8 | 90 | 93.3 | 69.1 | 1.09

CCCS(=O)(=O)Nc1ccc(F)c(C(=O)c2c[nH]c3ncc(-c4ccc(Cl)cc4)cc23)c1F [Vemurafenib] + CN1CCN(CCCN2c3ccccc3Sc3ccc(C(F)(F)F)cc32)CC1 [Trifluoperazine 2HCl]
cell viability [%]
Conditions | drug 2 concentration 0 µM | drug 2 concentration 0.185185 µM | drug 2 concentration 0.555556 µM | drug 2 concentration 1.66667 µM | drug 2 concentration 5 µM | drug 2 concentration 15 µM
drug 1 concentration 0.154321 µM | 97.6 | 96.6 | 102 | 101 | 89.3 | 17.6
drug 1 concentration 0.462963 µM | 106 | 116 | 105 | 104 | 110 | 22.9
drug 1 concentration 1.38889 µM | 98.8 | 101 | 99.8 | 103 | 98.9 | 22.3
drug 1 concentration 4.16667 µM | 113 | 116 | 107 | 101 | 102 | 21.8
drug 1 concentration 12.5 µM | 98 | 97.5 | 97.4 | 100 | 78.1 | 1.49

CCCS(=O)(=O)Nc1ccc(F)c(C(=O)c2c[nH]c3ncc(-c4ccc(Cl)cc4)cc23)c1F [Vemurafenib] + CN(C)C(=O)c1cc2cnc(Nc3ccc(N4CCNCC4)cn3)nc2n1C1CCCC1 [Ribociclib]
cell viability [%]
Conditions | drug 2 concentration 0 µM | drug 2 concentration 0.123457 µM | drug 2 concentration 0.37037 µM | drug 2 concentration 1.11111 µM | drug 2 concentration 3.33333 µM | drug 2 concentration 10 µM
drug 1 concentration 0.154321 µM | 86.1 | 91.5 | 91.3 | 85.2 | 83.1 | 77.5
drug 1 concentration 0.462963 µM | 95.5 | 90.3 | 90.6 | 89.4 | 89 | 81.7
drug 1 concentration 1.38889 µM | 93.5 | 91.1 | 87.5 | 88 | 84.7 | 79.1
drug 1 concentration 4.16667 µM | 96.2 | 92.4 | 88.7 | 85.8 | 82 | 78.6
drug 1 concentration 12.5 µM | 94.4 | 96.9 | 90.6 | 86.3 | 79.7 | 67.4

CCCS(=O)(=O)Nc1ccc(F)c(C(=O)c2c[nH]c3ncc(-c4ccc(Cl)cc4)cc23)c1F [Vemurafenib] + COc1cc(Nc2ncc3c(n2)-c2ccc(Cl)cc2C(c2c(F)cccc2OC)=NC3)ccc1C(=O)O [Alisertib]
cell viability [%]
Conditions | drug 2 concentration 0 µM | drug 2 concentration 0.0617284 µM | drug 2 concentration 0.185185 µM | drug 2 concentration 0.555556 µM | drug 2 concentration 1.66667 µM | drug 2 concentration 5 µM
drug 1 concentration 0.154321 µM | 87.5 | 90.1 | 82.5 | 77.2 | 77.6 | 73.9
drug 1 concentration 0.462963 µM | 80.8 | 81.7 | 82.2 | 76.9 | 76.1 | 72.7
drug 1 concentration 1.38889 µM | 86.8 | 87 | 83.9 | 77.9 | 79.6 | 74
drug 1 concentration 4.16667 µM | 84 | 82.6 | 78.4 | 78.2 | 68.9 | 72.3
drug 1 concentration 12.5 µM | 83.4 | 74.9 | 73.7 | 74 | 68.3 | 64.2

CCCS(=O)(=O)Nc1ccc(F)c(C(=O)c2c[nH]c3ncc(-c4ccc(Cl)cc4)cc23)c1F [Vemurafenib] + N#CC1(c2ccc(NC(=O)c3cccnc3NCc3ccncc3)cc2)CCCC1 [Apatinib]
cell viability [%]
Conditions | drug 2 concentration 0 µM | drug 2 concentration 0.0617284 µM | drug 2 concentration 0.185185 µM | drug 2 concentration 0.555556 µM | drug 2 concentration 1.66667 µM | drug 2 concentration 5 µM
drug 1 concentration 0.154321 µM | 106 | 105 | 111 | 109 | 103 | 96.8
drug 1 concentration 0.462963 µM | 119 | 122 | 115 | 119 | 114 | 95.6
drug 1 concentration 1.38889 µM | 92.9 | 114 | 121 | 111 | 109 | 92.2
drug 1 concentration 4.16667 µM | 117 | 117 | 116 | 116 | 108 | 97
drug 1 concentration 12.5 µM | 97.9 | 97.9 | 101 | 92.6 | 83.2 | 66.6

CC[C@]1(O)C[C@@H]2CN(CCc3c([nH]c4ccccc34)[C@@](C(=O)OC)(c3cc4c(cc3OC)N(C)[C@H]3[C@@](O)(C(=O)OC)[C@H](OC(C)=O)[C@]5(CC)C=CCN6CC[C@]43[C@@H]65)C2)C1 [Vinblastine] + CN1CCN(C2=Nc3cc(Cl)ccc3Nc3ccccc32)CC1 [Clozapine]
cell viability [%]
Conditions | drug 2 concentration 0 µM | drug 2 concentration 0.123457 µM | drug 2 concentration 0.37037 µM | drug 2 concentration 1.11111 µM | drug 2 concentration 3.33333 µM | drug 2 concentration 10 µM
drug 1 concentration 0.00246914 µM | 93.2 | 90.8 | 87.2 | 89.7 | 88.1 | 84.8
drug 1 concentration 0.00740741 µM | 94 | 96.4 | 96.7 | 102 | 100 | 95.2
drug 1 concentration 0.0222222 µM | 97.9 | 93.8 | 97.6 | 97.5 | 88.5 | 80.9
drug 1 concentration 0.0666667 µM | 94.7 | 95.4 | 97.1 | 99.8 | 90.1 | 78.6
drug 1 concentration 0.2 µM | 95.2 | 90.7 | 90.2 | 91.4 | 85 | 73.5

CC[C@]1(O)C[C@@H]2CN(CCc3c([nH]c4ccccc34)[C@@](C(=O)OC)(c3cc4c(cc3OC)N(C)[C@H]3[C@@](O)(C(=O)OC)[C@H](OC(C)=O)[C@]5(CC)C=CCN6CC[C@]43[C@@H]65)C2)C1 [Vinblastine] + CN(C)CCOc1ccc(/C(=C(/CCCl)c2ccccc2)c2ccccc2)cc1 [Toremifene (citrate)]
cell viability [%]
Conditions | drug 2 concentration 0 µM | drug 2 concentration 0.432099 µM | drug 2 concentration 1.2963 µM | drug 2 concentration 3.88889 µM | drug 2 concentration 11.6667 µM | drug 2 concentration 35 µM
drug 1 concentration 0.00246914 µM | 85 | 83.9 | 77 | 70.5 | 22.7 | 0.445
drug 1 concentration 0.00740741 µM | 88.9 | 91.3 | 91.4 | 71.4 | 18.3 | 0.496
drug 1 concentration 0.0222222 µM | 94.8 | 99.8 | 93.3 | 72 | 20.7 | 0.449
drug 1 concentration 0.0666667 µM | 88.6 | 87.8 | 83.5 | 54.9 | 20 | 0.503
drug 1 concentration 0.2 µM | 86.2 | 88.8 | 81.8 | 54.6 | 15.7 | 0.777
